Experimental findings from patent US20070065878A1 are described below.

This assay concerns the target T1, streptavidin-binding peptide (…).
T1 sequence (peptide): WCHPMWEVMCLR
As to the kind of experiment: flow cytometry labeling of E. coli displaying the dual-signal CPX scaffold, SAPE 50 nM.

No constants are given. Whether binding was seen depends on the method and setting. Some results given as binding are weak or reduced against the parent protein; the word gives no strength.

As to “Streptavidin-conjugated phycoerythrin (from UniProt P22629 37-163)”, the binding result is on record as “binds”.
